Among the data in article PMC10838158 are binding values, retold here.

Protein sequences, listed by entry. Tags and fused reporters are not part of them. Residues count along the entry.
UniProt Q9LKR3, residues 28-669: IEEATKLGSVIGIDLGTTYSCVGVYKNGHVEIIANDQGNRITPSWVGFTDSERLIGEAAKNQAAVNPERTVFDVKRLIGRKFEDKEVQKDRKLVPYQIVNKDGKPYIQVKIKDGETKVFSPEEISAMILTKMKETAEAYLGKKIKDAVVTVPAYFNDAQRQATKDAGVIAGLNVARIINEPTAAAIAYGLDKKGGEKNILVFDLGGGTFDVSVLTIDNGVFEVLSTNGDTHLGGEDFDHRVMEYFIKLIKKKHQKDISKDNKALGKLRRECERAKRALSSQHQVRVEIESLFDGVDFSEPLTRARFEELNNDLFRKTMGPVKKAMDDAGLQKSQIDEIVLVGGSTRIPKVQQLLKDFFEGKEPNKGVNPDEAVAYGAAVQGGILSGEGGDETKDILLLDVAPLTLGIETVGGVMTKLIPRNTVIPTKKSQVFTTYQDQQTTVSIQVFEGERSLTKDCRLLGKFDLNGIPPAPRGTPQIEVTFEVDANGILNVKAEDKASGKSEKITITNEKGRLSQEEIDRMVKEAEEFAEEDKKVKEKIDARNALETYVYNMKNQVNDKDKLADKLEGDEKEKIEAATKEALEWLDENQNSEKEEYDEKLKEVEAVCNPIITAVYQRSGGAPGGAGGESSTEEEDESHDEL

The target of the assay is T1, AtERdj2A–4M8H (Arabidopsis thaliana) (UniProt Q0WT48).
T1 sequence: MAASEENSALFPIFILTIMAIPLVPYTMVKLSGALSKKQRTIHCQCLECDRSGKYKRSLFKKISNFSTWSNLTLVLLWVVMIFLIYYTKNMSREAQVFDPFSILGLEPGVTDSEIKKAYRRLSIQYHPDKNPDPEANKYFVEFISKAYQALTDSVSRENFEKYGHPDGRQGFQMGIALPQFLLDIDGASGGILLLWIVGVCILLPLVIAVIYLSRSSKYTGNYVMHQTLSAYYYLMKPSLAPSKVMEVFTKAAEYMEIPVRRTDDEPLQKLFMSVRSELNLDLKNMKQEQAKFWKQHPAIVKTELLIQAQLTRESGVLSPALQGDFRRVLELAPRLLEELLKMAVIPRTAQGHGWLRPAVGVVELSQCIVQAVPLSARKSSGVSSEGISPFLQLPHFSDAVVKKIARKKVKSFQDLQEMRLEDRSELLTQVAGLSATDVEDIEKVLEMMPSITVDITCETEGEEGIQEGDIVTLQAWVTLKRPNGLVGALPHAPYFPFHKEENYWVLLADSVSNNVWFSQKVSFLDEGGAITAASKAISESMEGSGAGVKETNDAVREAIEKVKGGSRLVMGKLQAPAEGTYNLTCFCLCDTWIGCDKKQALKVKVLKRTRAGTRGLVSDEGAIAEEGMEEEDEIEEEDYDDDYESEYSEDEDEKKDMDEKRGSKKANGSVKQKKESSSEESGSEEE
Nature of the assay: co-IP; in vivo: 4M8H-tagged AtERdj constructs co-expressed with AtBiP1–GFP, CMV MP–GST or GFP in N. benthamiana leaves; total protein (100 µg) with c-Myc affinity beads 4 h at 4 °C; blots with anti-GFP or anti-GST.

These are yes or no findings as the source states them, for the method shown. In cells and extracts the contact can be indirect. Some binding calls cover weakened binding; strength is not graded here.

Consider “AtBiP1–GFP (co-expressed in N. benthamiana) (from UniProt Q9LKR3 28-669)”, for which the binding entry was “binds”.
